PMC7819943, “Rice protein-binding microarrays: a tool to detect cis-acting elements near promoter regions in rice”
Some of the results follow.

biological target: T1, OsSMF1 (Oryza sativa, UniProt Q6ZLB0 1-436); assay: protein-binding microarray (RPBM); PBS, 2% BSA, 51.3 ng/ul salmon testes DNA, 50 uM zinc acetate, 200 nM TF, 25 C, 1 h; high values mean tight binding; conditions: protein: recombinant; tags: N-terminal polyhistidine and DsRed monomer fusion (pET32a); chain copies: 2; label: CyDye5-dUTP incorporated in the synthesized complementary strand; 3' TTTTT single-stranded linker to array surface; dsDNA, one strand shown
T1 sequence: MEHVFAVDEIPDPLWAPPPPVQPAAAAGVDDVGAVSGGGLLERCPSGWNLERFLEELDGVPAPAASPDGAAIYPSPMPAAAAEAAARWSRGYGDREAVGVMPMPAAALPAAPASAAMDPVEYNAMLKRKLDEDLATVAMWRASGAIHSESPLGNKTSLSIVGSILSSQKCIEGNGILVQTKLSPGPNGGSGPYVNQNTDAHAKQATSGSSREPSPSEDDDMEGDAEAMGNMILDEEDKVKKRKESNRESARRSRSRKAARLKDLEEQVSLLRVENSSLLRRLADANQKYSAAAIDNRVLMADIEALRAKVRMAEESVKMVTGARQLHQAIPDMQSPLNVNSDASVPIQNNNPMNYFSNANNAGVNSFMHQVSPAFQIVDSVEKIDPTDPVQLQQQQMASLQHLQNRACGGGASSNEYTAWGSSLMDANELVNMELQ
How it was run: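 Binding signal is reported as fluorescence intensity per feature (arbitrary units) from an Axon 4000B scanner. Incubation used 200 nM of each Ni–NTA-purified, N-terminally polyhistidine- and DsRed-fused transcription factor from E. coli BL21-CodonPlus on a double-stranded custom Agilent array for 1 h at 25 °C, with 50 µM zinc acetate in the buffer, followed by washing.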

| Sequence | binding signal |
| --- | --- |
| AGTCACGTACGCACCGCTCGGCGCTCGCTAGCTGCCACCACGGAGTCACCTAGTGCAG | 4380 fluorescence intensity (a.u.) |
| CTCTTCCCTGCCATGGCTCCTCTCCTGACCCGGCCAAAGGCGGAGTCACCTAGTGCAG | 3260 fluorescence intensity (a.u.) |
| GAGTTAACTATAGTGAACTTGCCACGTCAACAAAACCAGTCGGAGTCACCTAGTGCAG | 23700 fluorescence intensity (a.u.) |
| ATGGTGATCGGACGGCTGAGATTGCGTGGTGGTGGCGGGACGGAGTCACCTAGTGCAG | 3680 fluorescence intensity (a.u.) |
| CACAGTAAAGTACTACCTGCTTCCCTGTTTGGAACAGTCACGGAGTCACCTAGTGCAG | 3450 fluorescence intensity (a.u.) |
| TAACACATGTAAAACAAACAGGTAATAACTCAAGTAAGTACGGAGTCACCTAGTGCAG | 3150 fluorescence intensity (a.u.) |
| ATGGTGATCGAATGGTGTGACGGGGTTATGTATTTAGATACGGAGTCACCTAGTGCAG | 4220 fluorescence intensity (a.u.) |
| CGCCGCCTGGAGGATGACGTAGGTGTTCGTCTGCGCGAACCGGAGTCACCTAGTGCAG | 4730 fluorescence intensity (a.u.) |
| TACAATGCCAGCATGTGTTTCATAGTACTGTGTCCTGTCACGGAGTCACCTAGTGCAG | 4830 fluorescence intensity (a.u.) |
| TGGAGGACACTGATTCGTTTACGCATATAAAGTTTATACGCGGAGTCACCTAGTGCAG | 3150 fluorescence intensity (a.u.) |
| CTCCTTACCCCTCCCCTTGTGGTGACGTCGACGGGACGGACGGAGTCACCTAGTGCAG | 9620 fluorescence intensity (a.u.) |
| GAGGAGCCCTGACCTGCATGGTGAAGTTGACGTGGTCCTGCGGAGTCACCTAGTGCAG | 6590 fluorescence intensity (a.u.) |
| TTCATGATTTTGCCACGATTACTCGGTGTCACCGTGTCACCGGAGTCACCTAGTGCAG | 6220 fluorescence intensity (a.u.) |
| GGGGTTAGTCGCCGGAGGTGTGGCGTGTCGACACGTACGCCGGAGTCACCTAGTGCAG | 8720 fluorescence intensity (a.u.) |
| AAATTCACGAAATCAACATACCACGTCATAGGGTTAACAACGGAGTCACCTAGTGCAG | 13500 fluorescence intensity (a.u.) |
| TGATTAATTCTGGTAGTTGTAGATGCTGATATACACACACCGGAGTCACCTAGTGCAG | 3140 fluorescence intensity (a.u.) |
| ACCATCCGAATTCCACGTCTGCCGGTGTGGTGGCGTTAAACGGAGTCACCTAGTGCAG | 4230 fluorescence intensity (a.u.) |
| AATACTCCCTCCATTTCGAAATGTTTGACACCGTTAACTTCGGAGTCACCTAGTGCAG | 3260 fluorescence intensity (a.u.) |
| TCCGGGATCAAATTGTCACGTAAACGCCACGTGGGATGACCGGAGTCACCTAGTGCAG | 18400 fluorescence intensity (a.u.) |
| CGTGGGTCCACGCTGACTTAGCCTCCACGTAGGACAATACCGGAGTCACCTAGTGCAG | 7240 fluorescence intensity (a.u.) |
| TTATCGTATGTGTGATATGAGATGGACACACGCGTGGCGGCGGAGTCACCTAGTGCAG | 3980 fluorescence intensity (a.u.) |
| GAGCTAGGACCCTCCGTGGTGGGGTGGCAGATTCACCACCCGGAGTCACCTAGTGCAG | 3190 fluorescence intensity (a.u.) |
| CCCGTCTGCTACTCTGCCGTGTTGGCCGCCGCGCCCACCTCGGAGTCACCTAGTGCAG | 3230 fluorescence intensity (a.u.) |
| AAAATTGTTGCGTGACTGAATGGAGATTTCAGATTTCTGCCGGAGTCACCTAGTGCAG | 5430 fluorescence intensity (a.u.) |
| CCCAGCATGACACGTGTCTAACTCGACCAGTCTCCTACTCCGGAGTCACCTAGTGCAG | 13500 fluorescence intensity (a.u.) |
| TCACGTTATTCGTTTGACGTGGCAAAACAATACTGTCGGTCGGAGTCACCTAGTGCAG | 10400 fluorescence intensity (a.u.) |
| GAATCTCCGTCCTCCACCTTCGCCGCTCGCCCCTCTCTCTCGGAGTCACCTAGTGCAG | 3520 fluorescence intensity (a.u.) |

| Sequence | binding signal |
| --- | --- |
| CGTGGATGGAGAAGAGGCGGCCGCCGCGGCGGCTGCTTGGCGGAGTCACCTAGTGCAG | 4800 fluorescence intensity (a.u.) |
| ATATATCCCGTGCATACCCATATACGTGGCACCATCTGACCGGAGTCACCTAGTGCAG | 12600 fluorescence intensity (a.u.) |
| AAATTTAGGGGTTGTTTGGTTGGTGACCACATGTTGTCACCGGAGTCACCTAGTGCAG | 5500 fluorescence intensity (a.u.) |
| TCTATAAGCTCTCTATAAGAGATCCATGTCAGCATATTTTCGGAGTCACCTAGTGCAG | 8150 fluorescence intensity (a.u.) |
| TCGCGCGCACGCAAACGCAAGCCATTACGTAACCACGGCTCGGAGTCACCTAGTGCAG | 3980 fluorescence intensity (a.u.) |
| CGGCATCGGCCGCGCCATGGCGTTCCGCCTCGCCGCCTCGCGGAGTCACCTAGTGCAG | 3290 fluorescence intensity (a.u.) |
| GTTGTACTTTTAAACTTGCTCTATGACATCACGATCAGAGCGGAGTCACCTAGTGCAG | 5160 fluorescence intensity (a.u.) |
| GAGGAAGAACCTTACGCTCAAACGAAACGGAACCAGTAGGCGGAGTCACCTAGTGCAG | 55100 fluorescence intensity (a.u.) |
| TTGCCTCTCCTCTACACAACACCGCGACTCTATCGGTATACGGAGTCACCTAGTGCAG | 3170 fluorescence intensity (a.u.) |
| ACTTGATTTGAACGTTTTGCATATGTACGTAGTACGTGTACGGAGTCACCTAGTGCAG | 3200 fluorescence intensity (a.u.) |
| CAAAAGATAGGGATTGTCACGGGGAGACACCCACATAAAACGGAGTCACCTAGTGCAG | 30500 fluorescence intensity (a.u.) |
| TGGTTTTGAAGGCGGTTTTGGTTGACGTGGCGCCTACATGCGGAGTCACCTAGTGCAG | 23700 fluorescence intensity (a.u.) |
| ACGGAGGGAGGGGCTGTTCAGATTGATGTCATTTTCAACCCGGAGTCACCTAGTGCAG | 3880 fluorescence intensity (a.u.) |
| TTCTGATGACTAGTATGAGACGTGAATGCCAACGCTCTCACGGAGTCACCTAGTGCAG | 3380 fluorescence intensity (a.u.) |
| CTTGATCTTCTCCCACTCCTTCCAATCTCCTCTCTTTTCTCGGAGTCACCTAGTGCAG | 3220 fluorescence intensity (a.u.) |
| CTTTTCATCCATCCCAACATCTTGCACATGCATGGAGAGTCGGAGTCACCTAGTGCAG | 4280 fluorescence intensity (a.u.) |
| GAATATATGGACATGTCTGTTAAGCTATCCTAAACGAACGCGGAGTCACCTAGTGCAG | 3890 fluorescence intensity (a.u.) |
| GTCGCCACGTCTGGAGGTCATGTTCCCCACTTCGGTGCTGCGGAGTCACCTAGTGCAG | 5680 fluorescence intensity (a.u.) |
| CGTGCCCTCCTCTTCCTCCCACTCCTCCTCATCTGCCCTCCGGAGTCACCTAGTGCAG | 27300 fluorescence intensity (a.u.) |
| AACAATAACAAGATTAAAATAAACTTCACACGTTGTAATGCGGAGTCACCTAGTGCAG | 3160 fluorescence intensity (a.u.) |
| AAACAAAATAGCATAATCACTCACCGCGTCACACAGCGGGCGGAGTCACCTAGTGCAG | 3720 fluorescence intensity (a.u.) |
| TCCTCTGATCGGCCTCTCTCGCACATTGCTTAATTAGCTACGGAGTCACCTAGTGCAG | 3170 fluorescence intensity (a.u.) |
| GACTCTGCAACACACGGTGCCCGCGCGTTCGCTACGTGTGCGGAGTCACCTAGTGCAG | 3530 fluorescence intensity (a.u.) |
| GTGCATGGGCGGTCATTAAATTTATAGGGATGTGTCATCTCGGAGTCACCTAGTGCAG | 3590 fluorescence intensity (a.u.) |
| TGGAGAAATATCCAGTTTTACATCTTCACCGTAATATGCGCGGAGTCACCTAGTGCAG | 24600 fluorescence intensity (a.u.) |
| ATATCCGGCTCACCGGTCCACGTGGACCGTGATCTCCCTTCGGAGTCACCTAGTGCAG | 11900 fluorescence intensity (a.u.) |
| TCATAGTGATGCACTTGATATAACACATCATTATCAATCTCGGAGTCACCTAGTGCAG | 4200 fluorescence intensity (a.u.) |

Part of the list above, with tabs:
Sequence	binding signal
CTTTTCATCCATCCCAACATCTTGCACATGCATGGAGAGTCGGAGTCACCTAGTGCAG	4280 fluorescence intensity (a.u.)
TCCTCTGATCGGCCTCTCTCGCACATTGCTTAATTAGCTACGGAGTCACCTAGTGCAG	3170 fluorescence intensity (a.u.)
